Assay results as given in patent US20210024639A1 (AGOMAB THERAPEUTICS, published 2021).

Columns and labels:
[1] = target: T1, human MET extracellular domain (ECD) (human, UniProt P08581 25-932); experiment: ELISA, MET ECD in solid phase
T1 construct: range 1-932; recombinant ECD; also called hMET; human MET ECD

[2] = target: T2, mouse MET extracellular domain (ECD) (mouse, UniProt P16056 25-931); experiment: ELISA, MET ECD in solid phase
T2 construct: range 1-931; recombinant ECD; also called mMET; mouse MET ECD

[3] = target: T1, human MET extracellular domain (ECD); experiment: ELISA, protein in solid phase, mAb 0-20 nM
[4] = target: llama-human MET chimeric protein CH2; experiment: ELISA, protein in solid phase, mAb 0-20 nM
[5] = target: llama-human MET chimeric protein CH5; experiment: ELISA, protein in solid phase, mAb 0-20 nM
[6] = target: llama-human MET chimeric protein CH1; experiment: ELISA, protein in solid phase, mAb 0-20 nM
[7] = target: llama-human MET chimeric protein CH3; experiment: ELISA, protein in solid phase, mAb 0-20 nM
[8] = target: llama-human MET chimeric protein CH4; experiment: ELISA, protein in solid phase, mAb 0-20 nM
[9] = target: llama-human MET chimeric protein CH6; experiment: ELISA, protein in solid phase
llama MET ECD (llama) = experiment: ELISA, protein in solid phase
[10] = target: llama-human MET chimeric protein CH7; experiment: ELISA, protein in solid phase
[11] = target: llama-human MET chimeric protein CH6; experiment: ELISA, protein in solid phase, mAb 0-20 nM
[12] = target: llama-human MET chimeric protein CH7; experiment: ELISA, protein in solid phase, mAb 0-20 nM
[13] = target: llama-human MET chimeric protein CH5; experiment: ELISA, protein in solid phase
[14] = target: llama-human MET chimeric protein CH3; experiment: ELISA, protein in solid phase
[15] = target: llama-human MET chimeric protein CH4; experiment: ELISA, protein in solid phase

Binder | binding [1] | binding [2] | binding [3] | binding [4] | binding [5] | binding [6] | binding [7] | binding [8] | binding [9] | binding (llama MET ECD (llama)) | binding [10] | binding [11] | binding [12] | binding [13] | binding [14] | binding [15]
chimeric llama-human IgG1 mAb 72F8 (antibody, V domains shown) VH: ELQLVESGGGLVQPGGSLRLSCAASGFTFSNYVMSWVRQAPGKGLEWVSDTNSGGSTSYADSVKGRFTISRDNAKNTLYLQMNSLKPEDTALYYCARSFFYGMNYWGKGTQVTVSS VL: QSALTQPPSLSASPGSSVRLTCTLSSGNNIGSYDISWYQQKAGSPPRYLLNYYTDSRKHQDSGVPSRFSGSKDASANAGLLLISGLQPEDEADYYCSAYKSGSYRWVFGGGTHVTVL | binds | binds | binds | binds | – | binds | – | – | – | no binding (tested: 0-20 nM) | – | binds | binds | no binding (tested: 0-20 nM) | no binding (tested: 0-20 nM) | no binding (tested: 0-20 nM)
chimeric llama-human IgG1 mAb 71G3 (antibody, V domains shown) VH: QVQLVESGGGLVQPGGSLRVSCAASGFTFSTYYMSWVRQAPGKGLEWVSDIRTDGGTYYADSVKGRFTMSRDNAKNTLYLQMNSLKPEDTALYYCARTRIFPSGYDYWGQGTQVTVSS VL: QAVVTQEPSLSVSPGGTVTLTCGLSSGSVTTSNYPGWFQQTPGQAPRTLIYNTNSRHSGVPSRFSGSISGNKAALTIMGAQPEDEADYYCSLYPGSTTVFGGGTHLTVL | binds | binds | binds | binds | binds | binds | binds | binds | no binding (tested: 0-20 nM) | no binding (tested: 0-20 nM) | no binding (tested: 0-20 nM) | – | – | – | – | –

Further lines, results first:

binding [1] | binding [2] | binding [3] | binding [4] | binding [5] | binding [6] | binding [7] | binding [8] | binding [9] | binding (llama MET ECD (llama)) | binding [10] | binding [11] | binding [12] | binding [13] | binding [14] | binding [15] | Binder
binds | binds | binds | binds | binds | binds | binds | binds | no binding (tested: 0-20 nM) | no binding (tested: 0-20 nM) | no binding (tested: 0-20 nM) | – | – | – | – | – | chimeric llama-human IgG1 mAb 76H10 (antibody, V domains shown) VH: QLQLVESGGGLVQPGGSLRVSCTASGFTFNTYYMTWVRQAPGKGLEWVSDINSGGGTYYADSVKGRFTISRDNAKNTLYLQMNSLKPEDTALYYCVRVRIWPVGYDYWGQGTQVTVSS VL: QAVVTQEPSLSVSPGGTVTLTCGLSSGSVTTSNYPGWFQQTPGQAPRTLIYNTNNRHSGVPSRFSGSISGNKAALTITGAQPEDEADYYCSLYTGSYTTVFGGGTHLTVL
binds | binds | binds | binds | binds | binds | binds | binds | no binding (tested: 0-20 nM) | no binding (tested: 0-20 nM) | no binding (tested: 0-20 nM) | – | – | – | – | – | chimeric llama-human IgG1 mAb 76G7 (antibody, V domains shown) VH: QVQLVESGGNLVQPGGSLRLSCAASGFTFSNYYMSWVRQAPGKGLEWVSDIYSDGSTTWYSDSVKGRFTISRDNAKNTLSLQMNSLKSEDTAVYYCARVKIYPGGYDAWGQGTQVTVSS VL: QAGLTQPPSVSGSPGKTVTISCAGNSSDVGYGNYVSWYQQFPGMAPKLLIYLVNKRASGITDRFSGSKSGNTASLTISGLQSEDEADYYCASYTGSNNIVFGGGTHLTVL

Results are given in words; binding and its absence hold for the method and conditions named. For some assays here: Binding calls can cover weak binding; strength is not graded here.
